Measurements from publication PMC11120983.
Results are given in words; binding and its absence hold for the method and conditions named. In cells and extracts the contact can be indirect. Some entries that bind do so weakly or less than the wild type. One block for each molecule: values may come before it.

Amino acid sequences for entries named in this document (tags omitted).
UniProt Q07141: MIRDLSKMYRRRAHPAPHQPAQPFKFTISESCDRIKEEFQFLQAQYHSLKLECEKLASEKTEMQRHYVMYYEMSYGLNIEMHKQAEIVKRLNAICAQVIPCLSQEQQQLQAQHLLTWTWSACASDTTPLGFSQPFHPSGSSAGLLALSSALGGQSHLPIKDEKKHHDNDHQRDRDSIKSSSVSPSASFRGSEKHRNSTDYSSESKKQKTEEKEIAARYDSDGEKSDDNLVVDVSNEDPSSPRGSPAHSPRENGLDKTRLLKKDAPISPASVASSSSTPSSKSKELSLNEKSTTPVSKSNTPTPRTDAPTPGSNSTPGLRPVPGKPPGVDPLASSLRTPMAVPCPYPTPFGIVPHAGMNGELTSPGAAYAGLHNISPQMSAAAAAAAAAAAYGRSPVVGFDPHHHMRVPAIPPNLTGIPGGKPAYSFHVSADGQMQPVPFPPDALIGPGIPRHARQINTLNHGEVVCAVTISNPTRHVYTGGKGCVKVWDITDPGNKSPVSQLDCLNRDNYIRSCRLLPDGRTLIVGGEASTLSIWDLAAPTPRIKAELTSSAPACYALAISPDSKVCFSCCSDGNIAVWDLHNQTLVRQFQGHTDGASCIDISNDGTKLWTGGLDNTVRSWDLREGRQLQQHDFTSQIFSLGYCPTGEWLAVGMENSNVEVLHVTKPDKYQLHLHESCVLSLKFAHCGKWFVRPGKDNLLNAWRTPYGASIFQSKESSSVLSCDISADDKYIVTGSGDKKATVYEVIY
UniProt Q62441: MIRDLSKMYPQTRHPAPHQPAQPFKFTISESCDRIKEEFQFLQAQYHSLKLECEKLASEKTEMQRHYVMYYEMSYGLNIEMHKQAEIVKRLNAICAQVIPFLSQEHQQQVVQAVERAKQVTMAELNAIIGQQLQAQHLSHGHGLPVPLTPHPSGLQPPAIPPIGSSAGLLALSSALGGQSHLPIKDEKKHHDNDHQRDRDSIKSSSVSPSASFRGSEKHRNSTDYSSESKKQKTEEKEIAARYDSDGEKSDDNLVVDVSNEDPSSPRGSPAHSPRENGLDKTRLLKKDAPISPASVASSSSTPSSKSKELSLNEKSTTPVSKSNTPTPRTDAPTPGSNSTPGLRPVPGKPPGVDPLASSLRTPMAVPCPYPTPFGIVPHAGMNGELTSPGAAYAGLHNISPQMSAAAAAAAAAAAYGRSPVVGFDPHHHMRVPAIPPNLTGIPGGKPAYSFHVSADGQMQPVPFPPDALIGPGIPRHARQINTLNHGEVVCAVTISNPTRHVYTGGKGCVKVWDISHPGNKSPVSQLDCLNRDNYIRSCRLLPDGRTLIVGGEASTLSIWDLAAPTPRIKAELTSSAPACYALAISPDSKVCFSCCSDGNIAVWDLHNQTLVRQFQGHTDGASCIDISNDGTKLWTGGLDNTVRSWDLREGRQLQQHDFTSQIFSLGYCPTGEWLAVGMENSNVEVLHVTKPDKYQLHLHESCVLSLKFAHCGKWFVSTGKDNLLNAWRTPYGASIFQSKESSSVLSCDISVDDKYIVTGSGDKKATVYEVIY
UniProt O55170: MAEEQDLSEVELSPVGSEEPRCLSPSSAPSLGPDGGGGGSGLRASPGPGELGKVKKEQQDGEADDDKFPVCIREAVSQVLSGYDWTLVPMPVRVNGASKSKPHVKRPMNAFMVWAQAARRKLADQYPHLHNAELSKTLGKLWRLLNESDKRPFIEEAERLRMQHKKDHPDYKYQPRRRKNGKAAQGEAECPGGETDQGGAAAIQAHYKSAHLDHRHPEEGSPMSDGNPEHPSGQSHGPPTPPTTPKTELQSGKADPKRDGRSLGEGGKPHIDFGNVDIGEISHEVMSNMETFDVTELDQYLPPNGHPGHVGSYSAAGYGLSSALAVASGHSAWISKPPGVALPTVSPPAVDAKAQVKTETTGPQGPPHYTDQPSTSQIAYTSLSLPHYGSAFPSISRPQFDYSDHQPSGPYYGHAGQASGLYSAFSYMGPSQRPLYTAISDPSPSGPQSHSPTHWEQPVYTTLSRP

How the values were obtained:
T7-Hes1 (mouse) [1] = target: T1, T7-Hes1 (mouse) (UniProt P35428); assay: co-IP; whole cell lysates of HEK293T cells overexpressing myc-Tle4, T7-Hes1 or both; precipitation with anti-T7 or anti-myc antibody and Protein A- or G-sepharose; blots with anti-T7 and anti-myc
T1 sequence: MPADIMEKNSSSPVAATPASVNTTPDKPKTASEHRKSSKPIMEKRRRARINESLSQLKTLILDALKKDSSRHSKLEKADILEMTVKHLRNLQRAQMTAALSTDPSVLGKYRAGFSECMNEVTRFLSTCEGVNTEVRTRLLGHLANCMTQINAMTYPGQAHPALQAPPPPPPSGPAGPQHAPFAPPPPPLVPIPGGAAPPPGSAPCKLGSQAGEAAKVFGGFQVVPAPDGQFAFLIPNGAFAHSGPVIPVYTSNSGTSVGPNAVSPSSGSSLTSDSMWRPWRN

[2] = target: Tle4 (endogenous, primary rat Schwann cells) (rat (endogenous in primary rat Schwann cells)) (UniProt Q07141); assay: co-IP; lysates of primary rat Schwann cell cultures in proliferative conditions, endogenous proteins; precipitation with anti-Tle4 antibody; blot with anti-Sox10 antiserum; varied salt, detergent and antibodies were also tried
T7-Hes1 (mouse) [3] = target: T1, T7-Hes1 (mouse); assay: co-IP; lysates of HEK293T cells overexpressing myc-Tle4 and Sox10 with or without T7-Hes1; precipitation with anti-T7 antibody in the standard setup shown; different salt and detergent concentrations and different precipitating antibodies were also tried; blots with anti-T7, anti-myc and anti-Sox10
myc-Tle4 (mouse) [4] = target: myc-Tle4 (mouse) (UniProt Q62441); assay: as above
myc-Tle4 (mouse) [5] = target: myc-Tle4 (mouse) (UniProt Q62441); assay: co-IP; whole cell lysates of HEK293T cells overexpressing myc-Tle4, T7-Hes1 or both; precipitation with anti-T7 or anti-myc antibody and Protein A- or G-sepharose; blots with anti-T7 and anti-myc

Molecule: Sox10 (endogenous, primary rat Schwann cells) (from UniProt O55170 1-466)
binding [2]: no binding

B1: T7-Hes1 (protein, UniProt P35428 1-282)
chain: MPADIMEKNSSSPVAATPASVNTTPDKPKTASEHRKSSKPIMEKRRRARINESLSQLKTLILDALKKDSSRHSKLEKADILEMTVKHLRNLQRAQMTAALSTDPSVLGKYRAGFSECMNEVTRFLSTCEGVNTEVRTRLLGHLANCMTQINAMTYPGQAHPALQAPPPPPPSGPAGPQHAPFAPPPPPLVPIPGGAAPPPGSAPCKLGSQAGEAAKVFGGFQVVPAPDGQFAFLIPNGAFAHSGPVIPVYTSNSGTSVGPNAVSPSSGSSLTSDSMWRPWRN
binding (myc-Tle4 (mouse) [5]): binds

The remaining lines, values ahead:

binding (T7-Hes1 (mouse) [1]): binds
Molecule: myc-Tle4 (from UniProt Q62441 1-773)

binding (T7-Hes1 (mouse) [3]): no binding
binding (myc-Tle4 (mouse) [4]): no binding
Molecule: Sox10 (pCMV5-Sox10, overexpressed) (from UniProt O55170 1-466)
